Test results as given in patent US5846755A (priority 1995, dated 1998).
At least one structure is not confirmed: it was looked up by name or label, or the drawing left a doubt.

How the values were obtained:
Type in all cases: biochemical
Settings in all cases: Table 5; unit M
[1] = molecular target: metalloproteinase purified from snake venom, Bothrops Atrox; assay: Inhibition of metalloproteinase purified from Bothrops Atrox venom
[2] = molecular target: metalloproteinase purified from snake venom, Bothrops Jararaca; assay: Inhibition of metalloproteinase purified from Bothrops Jararaca venom
[3] = molecular target: metalloproteinase purified from snake venom, Echis Carinatus; assay: Inhibition of metalloproteinase purified from Echis Carinatus venom

Compound | IC50 Bothrops Atrox [1] | IC50 Bothrops Jararaca [2] | IC50 Echis Carinatus [3]
CC(C)C[C@H](NC(=O)CSc1ccncc1)C(=O)N1Cc2[nH]c3ccccc3c2C[C@H]1C(=O)O [Compound 3, 4-PTA--(L)--Leu--(S)--Cyt--OH] | 12 µM | 6.5 µM | 24 µM
COc1cccc2cc(C(=O)N[C@@H](CC(C)C)C(=O)N3Cc4[nH]c5ccccc5c4C[C@H]3C(=O)O)oc12 [Compound 5, 7-MBF--(L)--Leu--(S)--Cyt--OH] | 4.1 µM | 3.7 µM | 8.9 µM
CC(C)C[C@H](NC(=O)c1ccccn1)C(=O)N1Cc2[nH]c3ccccc3c2C[C@H]1C(=O)O [Compound 9, PIC--(L)--Leu--(S)--Cyt--OH] | 2.5 µM | 1.3 µM | 3.5 µM
